Source: patent publication US20020143012A1, “Phenoxazine analogs useful as amyloid aggregation inhibitors and treatment of alzheimer's disease and disorders related to amyloidosis” (priority 2000, published 2002)
For at least one compound, name, drawing or mass did not settle the structure.

By UniProt entry, the sequences of proteins in these tests, tags left out. Residues count along the entry.
UniProt P05067, 672-711: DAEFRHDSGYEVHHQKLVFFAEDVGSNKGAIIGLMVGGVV

Molecular target: T1, Aβ(1-40) (Homo sapiens, UniProt P05067)
T1 construct: Soluble Aβ(1-40) peptide (Bachem, Torrance, Calif.); purchased Bachem, Torrance, Calif
Assay: BASSR (Beta-Amyloid Self-Seeding Radioassay), inhibitors of self-seeded amyloid fibril growth
Assay type: biochemical
Settings: 30 μM soluble Aβ(1-40), 125I-labeled Aβ(1-40), 37° C. 3 to 5 hours; replicate values; ppt = precipitate formed at the indicated concentration
Protocol: 1. BASSR (Beta-Amyloid Self-Seeding Radioassay)
An assay for inhibitors of self-seeded amyloid fibril growth
Assay Buffer—50 mM sodium phosphate, pH 7.5, 100 mM NaCl, 0.02% NaN3, 1 M urea (filter and store at 4° C.)
Soluble Aβ(1-40) peptide (Bachem, Torrance, Calif.)—2.2 mg/mL in […] deionized H2O (is stored in aliquots at −20° C.; is kept on ice when thawed) will self-seed after 1 week storage. Typically, the solution is stored until no lag phase is seen in the assay.
^125I-labeled Aβ(1-40)—150K to 350K cpm/μL in 100% acetonitrile−0.1% trifluoroacetic acid (TFA)—1% β-mercaptoethanol (aliquots stored at −20° C). ^125I-labeled Aβ(1-40) is made in accordance with the procedure set forth by LeVine H., III, in Neurobiol. Aging, 1995;16:755, which is hereby incorporated by reference, or this reagent may be purchased from Amersham, Arlington Heights, Ill.
Final assay conditions: 30 μM soluble Aβ(1-40) in deionized water in assay buffer+20K to 50K cpm ^125I-labeled Aβ (1-40) per assay. Compound to be tested is dissolved in dimethylsulfoxide (DMSO), typically 5 to 50 mM stock, such that the final concentration of DMSO is<1% v/v in the assay. […]
6) The aluminum film is removed and 200 μL/well of ice cold assay buffer with urea is added. […] The radioactivity of the filters is determined by using standard methods well-known to those skilled in the art.

Structure (SMILES): O=C(O)c1cc([N+](=O)[O-])cc2c1Nc1cc(-c3ccccc3)ccc1O2 [Compound 2, 3-nitro-8-phenylphenoxazinecarboxylic acid]
- IC50: 100 µM
